No constants are given. Whether binding was seen depends on the method and setting. Binding seen in cells or lysates may run through a third protein. Some binding calls cover weakened binding; strength is not graded here. For some of these results: Sequences can lack the tags named with a protein.
Experiments:
[1] = target: T1, autophagy-related protein 9B (ATG9B), endogenous (human (endogenous in SW620, LoVo, SW480)) (UniProt Q674R7); assay: co-IP; SW480 cells transfected with vector or MYH9, ATG9B or ΔATG9B plasmids, RIPA lysates, western blot
T1 sequence: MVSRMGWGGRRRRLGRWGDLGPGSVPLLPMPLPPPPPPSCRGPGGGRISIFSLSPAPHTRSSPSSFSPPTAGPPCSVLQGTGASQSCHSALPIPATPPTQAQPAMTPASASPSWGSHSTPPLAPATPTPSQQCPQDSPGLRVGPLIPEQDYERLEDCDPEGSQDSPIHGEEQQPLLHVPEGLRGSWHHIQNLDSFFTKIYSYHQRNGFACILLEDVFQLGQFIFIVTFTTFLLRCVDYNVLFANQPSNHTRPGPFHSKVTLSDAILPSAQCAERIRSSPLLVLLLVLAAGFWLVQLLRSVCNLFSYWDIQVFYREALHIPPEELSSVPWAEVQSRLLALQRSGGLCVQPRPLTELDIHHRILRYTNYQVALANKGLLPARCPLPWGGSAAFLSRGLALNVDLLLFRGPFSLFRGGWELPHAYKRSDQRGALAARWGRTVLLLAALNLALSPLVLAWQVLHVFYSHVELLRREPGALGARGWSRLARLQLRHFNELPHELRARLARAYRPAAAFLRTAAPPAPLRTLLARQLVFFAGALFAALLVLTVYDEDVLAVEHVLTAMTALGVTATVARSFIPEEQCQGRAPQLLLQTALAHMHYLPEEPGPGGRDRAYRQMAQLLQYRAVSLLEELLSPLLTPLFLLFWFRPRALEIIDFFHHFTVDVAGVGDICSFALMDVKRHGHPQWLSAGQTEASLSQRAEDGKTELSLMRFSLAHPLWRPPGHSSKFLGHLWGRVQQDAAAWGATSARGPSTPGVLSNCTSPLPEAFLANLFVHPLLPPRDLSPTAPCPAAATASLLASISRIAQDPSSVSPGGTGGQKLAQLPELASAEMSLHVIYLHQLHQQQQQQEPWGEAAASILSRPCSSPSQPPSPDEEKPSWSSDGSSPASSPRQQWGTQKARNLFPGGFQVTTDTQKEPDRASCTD

The chains behind the UniProt entries cited, without tags or fusion partners. Where a name states a change or a piece, a line headed by the entry shows the natural chain unless it says otherwise.
UniProt P05556: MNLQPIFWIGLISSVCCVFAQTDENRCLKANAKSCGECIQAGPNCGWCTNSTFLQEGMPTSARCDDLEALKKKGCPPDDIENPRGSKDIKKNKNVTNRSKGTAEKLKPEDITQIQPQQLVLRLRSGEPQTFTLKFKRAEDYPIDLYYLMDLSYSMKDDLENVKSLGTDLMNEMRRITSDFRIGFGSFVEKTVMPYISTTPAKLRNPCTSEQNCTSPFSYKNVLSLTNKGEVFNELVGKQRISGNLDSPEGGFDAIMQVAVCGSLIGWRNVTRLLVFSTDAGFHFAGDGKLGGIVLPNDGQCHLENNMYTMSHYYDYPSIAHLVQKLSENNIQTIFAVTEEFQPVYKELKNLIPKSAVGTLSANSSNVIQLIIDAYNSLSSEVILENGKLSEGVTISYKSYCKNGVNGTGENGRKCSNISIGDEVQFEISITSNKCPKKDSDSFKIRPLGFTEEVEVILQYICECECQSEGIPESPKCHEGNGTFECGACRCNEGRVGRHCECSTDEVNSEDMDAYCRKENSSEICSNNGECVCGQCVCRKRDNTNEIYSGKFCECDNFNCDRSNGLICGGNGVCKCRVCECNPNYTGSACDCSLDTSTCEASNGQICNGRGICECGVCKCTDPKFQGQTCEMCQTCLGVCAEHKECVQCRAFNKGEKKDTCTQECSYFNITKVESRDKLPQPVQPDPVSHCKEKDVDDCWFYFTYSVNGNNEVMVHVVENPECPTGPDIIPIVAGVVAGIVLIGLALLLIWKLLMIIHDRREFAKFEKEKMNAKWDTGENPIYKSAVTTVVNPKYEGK
UniProt P35579: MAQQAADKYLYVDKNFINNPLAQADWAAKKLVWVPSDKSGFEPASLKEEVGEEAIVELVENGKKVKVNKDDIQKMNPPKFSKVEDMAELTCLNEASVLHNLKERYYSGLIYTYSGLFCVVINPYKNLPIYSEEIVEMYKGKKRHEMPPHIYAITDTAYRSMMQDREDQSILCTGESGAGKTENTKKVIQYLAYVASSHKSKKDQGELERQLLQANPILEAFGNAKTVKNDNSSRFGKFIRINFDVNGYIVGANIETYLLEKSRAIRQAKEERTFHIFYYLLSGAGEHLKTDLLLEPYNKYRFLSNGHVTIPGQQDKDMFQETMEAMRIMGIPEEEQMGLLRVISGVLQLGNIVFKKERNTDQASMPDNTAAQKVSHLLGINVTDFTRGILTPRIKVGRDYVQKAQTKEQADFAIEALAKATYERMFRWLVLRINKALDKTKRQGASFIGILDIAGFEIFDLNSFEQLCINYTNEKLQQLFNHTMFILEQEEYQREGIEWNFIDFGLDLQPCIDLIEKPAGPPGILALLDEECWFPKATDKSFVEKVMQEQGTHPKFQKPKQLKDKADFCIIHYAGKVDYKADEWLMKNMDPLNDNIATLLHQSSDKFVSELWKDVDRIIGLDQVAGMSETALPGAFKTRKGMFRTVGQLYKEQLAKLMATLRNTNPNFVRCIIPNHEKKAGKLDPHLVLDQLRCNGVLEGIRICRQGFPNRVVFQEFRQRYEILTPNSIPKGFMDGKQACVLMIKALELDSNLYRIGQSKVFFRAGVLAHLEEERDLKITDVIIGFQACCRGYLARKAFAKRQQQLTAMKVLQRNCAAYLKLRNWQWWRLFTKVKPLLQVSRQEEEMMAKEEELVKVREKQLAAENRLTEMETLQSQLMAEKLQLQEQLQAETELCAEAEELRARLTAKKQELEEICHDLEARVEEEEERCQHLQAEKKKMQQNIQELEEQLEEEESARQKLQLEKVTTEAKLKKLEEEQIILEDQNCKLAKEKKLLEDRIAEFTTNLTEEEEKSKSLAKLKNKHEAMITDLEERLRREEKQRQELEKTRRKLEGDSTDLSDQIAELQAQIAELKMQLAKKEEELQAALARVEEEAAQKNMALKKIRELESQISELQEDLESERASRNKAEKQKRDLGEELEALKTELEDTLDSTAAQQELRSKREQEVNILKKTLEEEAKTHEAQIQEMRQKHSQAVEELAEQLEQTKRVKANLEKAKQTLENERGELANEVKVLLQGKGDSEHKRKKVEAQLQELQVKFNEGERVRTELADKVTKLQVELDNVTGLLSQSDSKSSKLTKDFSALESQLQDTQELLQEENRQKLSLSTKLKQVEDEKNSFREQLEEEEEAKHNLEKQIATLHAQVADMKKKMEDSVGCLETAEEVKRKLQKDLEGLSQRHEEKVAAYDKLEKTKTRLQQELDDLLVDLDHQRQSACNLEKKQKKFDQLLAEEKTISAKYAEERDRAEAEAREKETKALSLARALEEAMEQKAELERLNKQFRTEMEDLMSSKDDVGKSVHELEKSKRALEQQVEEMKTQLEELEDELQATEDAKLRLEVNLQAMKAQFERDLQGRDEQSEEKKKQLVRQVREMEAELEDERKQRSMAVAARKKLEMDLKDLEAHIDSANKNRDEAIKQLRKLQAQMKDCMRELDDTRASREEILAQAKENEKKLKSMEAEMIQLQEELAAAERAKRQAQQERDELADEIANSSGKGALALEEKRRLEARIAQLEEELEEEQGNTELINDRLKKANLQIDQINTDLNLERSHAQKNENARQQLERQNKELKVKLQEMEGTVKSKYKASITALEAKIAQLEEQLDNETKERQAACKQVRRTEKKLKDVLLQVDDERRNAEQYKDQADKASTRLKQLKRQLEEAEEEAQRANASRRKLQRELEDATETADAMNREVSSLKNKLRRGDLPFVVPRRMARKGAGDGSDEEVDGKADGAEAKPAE
UniProt Q9Y490: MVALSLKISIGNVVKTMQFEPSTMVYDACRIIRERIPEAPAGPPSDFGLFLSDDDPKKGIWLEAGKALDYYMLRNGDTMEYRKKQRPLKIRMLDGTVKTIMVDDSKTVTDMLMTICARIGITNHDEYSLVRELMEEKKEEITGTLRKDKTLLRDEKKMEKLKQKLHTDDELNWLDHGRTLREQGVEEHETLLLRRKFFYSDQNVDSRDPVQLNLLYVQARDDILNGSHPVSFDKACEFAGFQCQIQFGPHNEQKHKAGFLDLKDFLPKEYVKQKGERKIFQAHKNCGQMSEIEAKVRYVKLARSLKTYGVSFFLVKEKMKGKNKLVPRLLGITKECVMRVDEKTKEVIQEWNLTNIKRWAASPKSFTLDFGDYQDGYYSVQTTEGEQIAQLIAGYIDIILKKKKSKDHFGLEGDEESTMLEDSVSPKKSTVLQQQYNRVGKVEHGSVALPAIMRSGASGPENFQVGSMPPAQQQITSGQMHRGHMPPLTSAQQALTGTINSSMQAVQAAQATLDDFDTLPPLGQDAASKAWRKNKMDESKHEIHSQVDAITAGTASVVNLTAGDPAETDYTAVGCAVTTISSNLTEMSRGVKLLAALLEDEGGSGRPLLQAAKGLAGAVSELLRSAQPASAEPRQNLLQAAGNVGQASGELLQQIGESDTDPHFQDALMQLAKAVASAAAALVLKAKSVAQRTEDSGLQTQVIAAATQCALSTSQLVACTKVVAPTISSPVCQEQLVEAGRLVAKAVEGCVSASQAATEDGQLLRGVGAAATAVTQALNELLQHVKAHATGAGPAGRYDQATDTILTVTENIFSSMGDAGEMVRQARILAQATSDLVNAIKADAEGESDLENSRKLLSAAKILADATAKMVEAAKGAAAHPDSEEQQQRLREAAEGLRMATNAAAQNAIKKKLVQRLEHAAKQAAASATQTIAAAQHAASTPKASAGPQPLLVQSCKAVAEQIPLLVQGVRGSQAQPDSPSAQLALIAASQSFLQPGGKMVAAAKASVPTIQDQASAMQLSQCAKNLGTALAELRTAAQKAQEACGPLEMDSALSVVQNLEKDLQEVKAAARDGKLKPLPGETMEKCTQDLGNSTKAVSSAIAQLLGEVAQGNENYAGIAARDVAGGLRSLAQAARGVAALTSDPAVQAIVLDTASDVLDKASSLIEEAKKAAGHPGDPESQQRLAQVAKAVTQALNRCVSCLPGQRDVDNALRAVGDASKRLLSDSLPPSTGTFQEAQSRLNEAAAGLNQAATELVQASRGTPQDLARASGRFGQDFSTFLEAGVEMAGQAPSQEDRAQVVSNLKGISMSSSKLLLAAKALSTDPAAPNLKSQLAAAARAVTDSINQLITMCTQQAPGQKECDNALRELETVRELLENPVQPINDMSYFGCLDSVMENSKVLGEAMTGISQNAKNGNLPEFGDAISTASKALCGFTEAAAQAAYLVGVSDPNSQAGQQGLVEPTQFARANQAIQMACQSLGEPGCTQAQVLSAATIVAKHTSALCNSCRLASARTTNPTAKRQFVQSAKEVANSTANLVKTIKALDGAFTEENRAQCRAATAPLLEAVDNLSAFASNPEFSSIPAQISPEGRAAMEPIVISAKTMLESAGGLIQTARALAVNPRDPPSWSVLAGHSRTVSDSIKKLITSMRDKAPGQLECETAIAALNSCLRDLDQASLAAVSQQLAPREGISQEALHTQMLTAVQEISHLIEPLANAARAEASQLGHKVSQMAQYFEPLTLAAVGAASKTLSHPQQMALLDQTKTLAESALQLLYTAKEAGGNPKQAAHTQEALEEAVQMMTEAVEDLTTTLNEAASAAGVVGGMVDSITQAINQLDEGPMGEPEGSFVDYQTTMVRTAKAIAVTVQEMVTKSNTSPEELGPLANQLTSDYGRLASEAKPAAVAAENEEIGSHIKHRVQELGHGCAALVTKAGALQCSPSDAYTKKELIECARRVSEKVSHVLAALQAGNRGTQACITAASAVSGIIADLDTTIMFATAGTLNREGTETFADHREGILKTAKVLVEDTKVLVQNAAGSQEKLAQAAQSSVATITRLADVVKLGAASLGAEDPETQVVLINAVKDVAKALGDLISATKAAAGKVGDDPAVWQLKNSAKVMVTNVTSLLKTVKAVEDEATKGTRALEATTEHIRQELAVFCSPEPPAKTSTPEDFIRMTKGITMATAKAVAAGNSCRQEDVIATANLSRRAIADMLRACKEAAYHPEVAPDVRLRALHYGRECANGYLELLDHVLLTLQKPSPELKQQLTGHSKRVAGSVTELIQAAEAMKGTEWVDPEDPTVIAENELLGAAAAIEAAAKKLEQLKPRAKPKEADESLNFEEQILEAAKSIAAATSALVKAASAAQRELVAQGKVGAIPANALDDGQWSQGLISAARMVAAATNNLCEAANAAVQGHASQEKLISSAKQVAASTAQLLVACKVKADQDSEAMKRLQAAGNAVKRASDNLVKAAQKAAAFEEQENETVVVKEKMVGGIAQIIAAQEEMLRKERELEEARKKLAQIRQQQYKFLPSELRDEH
UniProt Q9UNE7: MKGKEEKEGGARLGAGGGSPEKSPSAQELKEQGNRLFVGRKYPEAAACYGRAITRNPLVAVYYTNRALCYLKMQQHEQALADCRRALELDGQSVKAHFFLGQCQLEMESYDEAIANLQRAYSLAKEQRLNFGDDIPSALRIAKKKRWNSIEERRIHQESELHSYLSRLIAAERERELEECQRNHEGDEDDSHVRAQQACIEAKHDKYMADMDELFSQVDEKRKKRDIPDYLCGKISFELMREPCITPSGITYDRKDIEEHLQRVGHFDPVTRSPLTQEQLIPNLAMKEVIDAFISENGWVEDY

[2] = target: integrin β1, endogenous (human (endogenous in SW620, SW480)) (UniProt P05556); assay: as above
[3] = target: integrin β1, endogenous (human (endogenous in SW620, SW480)) (UniProt P05556); assay: co-IP; endogenous proteins in SW620 and LoVo lysates (RIPA buffer), indicated antibodies on protein A/G beads, western blot; SW620 also with si-Control or si-ATG9B
[4] = target: T1, autophagy-related protein 9B (ATG9B), endogenous (human (endogenous in SW620, LoVo, SW480)); assay: as above
[5] = target: myosin-9 (MYH9), endogenous (human (endogenous in SW620, LoVo, SW480)) (UniProt P35579); assay: co-IP; SW480 cells transfected with vector or MYH9, ATG9B or ΔATG9B plasmids, RIPA lysates, western blot
[6] = target: T1, autophagy-related protein 9B (ATG9B), endogenous (human (endogenous in SW620, LoVo, SW480)); assay: co-IP; Fig. S6B; cells and constructs not shown
[7] = target: myosin-9 (MYH9), endogenous (human (endogenous in SW620, LoVo, SW480)) (UniProt P35579); assay: co-IP; Fig. S6B; cells and constructs not shown
[8] = target: T2, His-tagged ATG9B (ATG9B^His) (human) (UniProt Q674R7); assay: co-IP; HEK293T cells transfected with His-tagged ATG9B constructs and Flag-tagged MYH9 constructs, RIPA lysates, IP with anti-Flag or anti-His, western blot
T2 sequence: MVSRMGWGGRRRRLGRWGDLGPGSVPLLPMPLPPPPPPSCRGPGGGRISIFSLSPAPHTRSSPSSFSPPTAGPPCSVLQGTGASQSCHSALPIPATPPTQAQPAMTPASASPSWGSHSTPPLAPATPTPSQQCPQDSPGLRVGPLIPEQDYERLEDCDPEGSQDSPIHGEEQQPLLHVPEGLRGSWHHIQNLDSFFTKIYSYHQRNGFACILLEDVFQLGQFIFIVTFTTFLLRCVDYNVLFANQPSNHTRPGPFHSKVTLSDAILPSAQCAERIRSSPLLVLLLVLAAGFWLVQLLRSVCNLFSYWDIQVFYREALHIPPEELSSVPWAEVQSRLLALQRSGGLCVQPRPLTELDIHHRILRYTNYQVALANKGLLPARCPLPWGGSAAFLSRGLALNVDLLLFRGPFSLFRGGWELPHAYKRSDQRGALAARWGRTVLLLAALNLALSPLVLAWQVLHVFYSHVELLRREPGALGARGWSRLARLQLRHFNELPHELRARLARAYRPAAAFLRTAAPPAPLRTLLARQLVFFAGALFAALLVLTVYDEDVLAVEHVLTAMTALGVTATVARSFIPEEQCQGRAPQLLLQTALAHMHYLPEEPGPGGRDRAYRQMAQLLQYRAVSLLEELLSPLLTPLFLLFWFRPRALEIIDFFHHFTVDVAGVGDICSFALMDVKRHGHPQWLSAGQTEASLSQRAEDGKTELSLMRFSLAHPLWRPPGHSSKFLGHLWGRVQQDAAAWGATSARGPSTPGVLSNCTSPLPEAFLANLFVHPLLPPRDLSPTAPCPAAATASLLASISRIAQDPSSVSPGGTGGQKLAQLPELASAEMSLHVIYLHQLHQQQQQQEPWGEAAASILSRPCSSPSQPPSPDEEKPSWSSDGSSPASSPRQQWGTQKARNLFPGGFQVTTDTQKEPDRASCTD

[9] = target: T3, ATG9B-Cd2^His protein (amino acids 298–438) (human) (UniProt Q674R7); assay: pull-down; bacteria-expressed His or ATG9B-Cd2^His held on His-tag magnetic beads, added to lysates of 293T cells transfected with MYH9^Flag overnight, eluate by western blot; only the target purified
T3 sequence: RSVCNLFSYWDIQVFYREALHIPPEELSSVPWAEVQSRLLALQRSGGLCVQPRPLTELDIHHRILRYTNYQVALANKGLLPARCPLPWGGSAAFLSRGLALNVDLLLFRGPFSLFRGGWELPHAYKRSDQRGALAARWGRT

[10] = target: myosin-9 (MYH9), endogenous (human (endogenous in SW620, LoVo, SW480)) (UniProt P35579); assay: co-IP; SW480 cells transfected with vector or MYH9, ATG9B or ΔATG9B plasmids, RIPA lysates, western blot; remark: listed apart in the source

MYH9 overexpressed in SW480 cells (MYH9 plasmids) (from UniProt P35579 1-1960)
binding [1]: binds

Talin-1, endogenous (from UniProt Q9Y490 1-2541)
binding [2]: binds
binding [3]: binds
binding [4]: binds

myosin-9 (MYH9), endogenous (from UniProt P35579 1-1960)
binding [4]: binds

E3 ubiquitin ligase STUB1 (carboxyl terminus of hsc70-interacting protein, CHIP) (from UniProt Q9UNE7 1-303) (enzyme)
binding [1]: binds
binding [5]: binds
binding [6]: binds
binding [7]: binds

integrin β1, endogenous (from UniProt P05556 21-798) (receptor)
binding [4]: binds

Flag-tagged MYH9 (MYH9^Flag) (from UniProt P35579 1-1960)
binding [8]: binds
binding [9]: binds

B1: ATG9B overexpressed in SW480 cells (ATG9B plasmids) (protein, UniProt Q674R7 1-924)
chain: MVSRMGWGGRRRRLGRWGDLGPGSVPLLPMPLPPPPPPSCRGPGGGRISIFSLSPAPHTRSSPSSFSPPTAGPPCSVLQGTGASQSCHSALPIPATPPTQAQPAMTPASASPSWGSHSTPPLAPATPTPSQQCPQDSPGLRVGPLIPEQDYERLEDCDPEGSQDSPIHGEEQQPLLHVPEGLRGSWHHIQNLDSFFTKIYSYHQRNGFACILLEDVFQLGQFIFIVTFTTFLLRCVDYNVLFANQPSNHTRPGPFHSKVTLSDAILPSAQCAERIRSSPLLVLLLVLAAGFWLVQLLRSVCNLFSYWDIQVFYREALHIPPEELSSVPWAEVQSRLLALQRSGGLCVQPRPLTELDIHHRILRYTNYQVALANKGLLPARCPLPWGGSAAFLSRGLALNVDLLLFRGPFSLFRGGWELPHAYKRSDQRGALAARWGRTVLLLAALNLALSPLVLAWQVLHVFYSHVELLRREPGALGARGWSRLARLQLRHFNELPHELRARLARAYRPAAAFLRTAAPPAPLRTLLARQLVFFAGALFAALLVLTVYDEDVLAVEHVLTAMTALGVTATVARSFIPEEQCQGRAPQLLLQTALAHMHYLPEEPGPGGRDRAYRQMAQLLQYRAVSLLEELLSPLLTPLFLLFWFRPRALEIIDFFHHFTVDVAGVGDICSFALMDVKRHGHPQWLSAGQTEASLSQRAEDGKTELSLMRFSLAHPLWRPPGHSSKFLGHLWGRVQQDAAAWGATSARGPSTPGVLSNCTSPLPEAFLANLFVHPLLPPRDLSPTAPCPAAATASLLASISRIAQDPSSVSPGGTGGQKLAQLPELASAEMSLHVIYLHQLHQQQQQQEPWGEAAASILSRPCSSPSQPPSPDEEKPSWSSDGSSPASSPRQQWGTQKARNLFPGGFQVTTDTQKEPDRASCTD
binding [10]: binds

Reference: article PMC8629984
